Laboratory results published in PubChem BioAssay AID1347076 (National Center for Advancing Translational Sciences (NCATS), 2019).
Out of some 400,000 compounds screened, about 13,000 (3.2%) were called active. The shares of active, inactive and inconclusive entries below differ from those in the screen. Calls come from the whole dose curve; as a rule, active = well fitted cell-killing curve with a large enough effect; inconclusive = small, poorly fitted or top-dose-only effect, or effect the other way; inactive = flat fitted curve, though single readings scatter. Potencies of inconclusive entries are doubtful fits and often do not repeat.
% is set by controls: 0 for no effect and ±100 for the full control effect; potency is the fitted concentration of half-maximal effect.

Test: qHTS assay for MDR1-selective chemotherapeutics: Primary screen using the drug-selected MDR subline cells KB-V1; note: nearly all actives have a fitted effect of over 60% in size
Conditions: KB-V1 MDR cells viability, CellTiter-Glo, 72 h; activity change, negative = cytotoxicity: at 46.1 µM (top of the series)
Method in brief: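 KB-V1, DMEM (no phenol red) + 10% FBS; cpd pin-transferred, titration series; 72 h, 37 degrees C; CellTiter-Glo, luminescence. Data normalized, curve-fit.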
For COCCN(CCOC)S(=O)(=O)c1ccc(C(=O)Nc2nc(-c3ccccc3)c(C(=O)c3ccccc3)s2)cc1, the Potency was inconclusive: 9.2 µM [cytotoxic, partial curve].
In the case of CCOC(=O)C1=CCN(S(=O)(=O)c2ccc(C)cc2)[C@H]1c1ccccc1Cl, the Potency was inconclusive: 29.1 µM [cytotoxic, single point].
For COC(=O)Nc1ccc(S(=O)(=O)N2CCN(c3ccc(F)cc3)CC2)cc1, the Potency was inconclusive: 1.84 µM [cytotoxic, full curve].
For O=C1NC(c2ccncc2)Nc2sc3c(c21)CCCC3 (centres undefined), the Potency was active: 20.6 µM.
With CCc1nnc(NC(=O)c2cccc(S(=O)(=O)N(C)c3ccc(OC)cc3)c2)s1 the Potency was inconclusive: 10.3 µM [cytotoxic, partial curve, poor fit].
For CC(C)(C)NC(=O)CN(C(=O)CS(=O)CC(=O)Nc1ccc(F)cc1)c1ccc2c(c1)OCCO2 (centres undefined), the Potency was inconclusive: 25.9 µM [rising, partial curve].
In the case of CCOc1ccccc1NC(=O)c1ccccc1-c1nc(-c2ccccc2)no1, the Potency was active: 8.2 µM.
For COc1ccccc1CC1CC(=O)N(c2ccc([N+](=O)[O-])cc2)C1=O (centres undefined), the “activity change, negative = cytotoxicity” value was inactive: 14.4%.
In the case of COc1cc2c(cc1NC(=O)c1cc(-c3ccncc3)nc3ccc(C)cc13)oc1ccccc12, the “activity change, negative = cytotoxicity” value was inactive: 20.9%.
For Cc1ccc(C(=O)N/N=C/c2c[nH]c3ccccc23)o1, the “activity change, negative = cytotoxicity” value was inactive: 3.91%.
In the case of Cc1cc(C)nc(N2CCCC(C(=O)Nc3ccc4c(c3)OCO4)C2)n1 (centres undefined), the Potency was active: 23.1 µM.
For O=C(Nc1cccc(C(=O)OCc2cc(=O)n3ccsc3n2)c1)c1ccc(F)cc1, the Potency was inconclusive: 29.1 µM [rising, single point].
In the case of O=C(NC1CCSC1=O)c1cccc(Cl)c1 (centres undefined), the activity change, negative = cytotoxicity was inconclusive: 33.4%.
In the case of O=C(NCc1ccccc1)C1=C[C@@H](c2coc3ccccc3c2=O)C[C@@H](OCc2ccc(CO)cc2)O1, the “activity change, negative = cytotoxicity” value was inactive: -18.6%.
With O=C(Nc1ccccc1N1CCOCC1)c1ccc2nc[nH]c2c1 the Potency was inconclusive: 29.1 µM [cytotoxic, single point].
For Clc1ccc(-n2nnnc2-c2ccccc2)cc1, the “activity change, negative = cytotoxicity” value was inactive: -6.72%.
For Clc1ccc(Nc2ncnc3ccc(Br)cc23)cc1, the Potency was active: 10.3 µM.
With O=C(CSc1n[nH]c(-c2ccccc2)n1)NC(=O)NCc1ccco1 the Potency was inconclusive: 23.1 µM [cytotoxic, single point].
In the case of CCN1CCN(CCC(=O)Nc2ccc(Br)cc2)CC1, the “activity change, negative = cytotoxicity” value was inactive: 22.4%.
For CC1CCc2[nH]c3ccc(C(=O)N(C)CC(=O)Nc4cccc(F)c4)cc3c2C1 (centres undefined), the Potency was inconclusive: 18.4 µM [cytotoxic, single point].
With CCCn1c(SCC#N)nc2c(c1=O)C1(CCCC1)Cc1ccccc1-2 the “activity change, negative = cytotoxicity” value was inactive: -8.54%.
In the case of CC(=O)Nc1ccc(-c2ccnc3c2CC(C(=O)Nc2cccc(Oc4ccccc4)c2)O3)cc1 (centres undefined), the Potency was inconclusive: 29.1 µM [cytotoxic, single point].
With CCOC(=O)C1(C)CCCN(C(=O)c2cc(C)oc2C)C1 (centres undefined) the “activity change, negative = cytotoxicity” value was inactive: 3.14%.
For COc1cc(Cl)c(C)cc1NC(=O)Cn1cnc2sc(C)c(S(=O)(=O)N3CCCCC3)c2c1=O, the “activity change, negative = cytotoxicity” value was inactive: -1.83%.
For CCc1ccc(C(O)c2ncc(-c3ccc(Cl)cc3)[nH]2)cc1 (centres undefined), the “activity change, negative = cytotoxicity” value was inactive: 2.05%.
In the case of CC(=O)c1c(C)nc2ccc(Br)cc2c1-c1ccccc1, the Potency was inconclusive: 18.4 µM [cytotoxic, single point].
In the case of COc1c2c(cc(O)c1C(C)=O)OC(C)(C)C=C2, the “activity change, negative = cytotoxicity” value was inactive: -8.68%.
For CN(c1ccccc1C(=O)O)S(C)(=O)=O, the “activity change, negative = cytotoxicity” value was inactive: 1.08%.
For Cc1cc(C=C2C(=O)c3ccccc3C2=O)c(C)n1-c1ccccc1, the “activity change, negative = cytotoxicity” value was inactive: -18.8%.
With CCOCCCn1c(SCC(=O)Nc2ccccc2)nc2ccccc2c1=O the “activity change, negative = cytotoxicity” value was inactive: -2.17%.
For COc1ccc(-c2cnnc(N/N=C/c3ccc(O)c(OC)c3)n2)cc1, the Potency was active: 5.8 µM.
For COc1ccc(NC(=O)C2CCCN(S(=O)(=O)c3cccnc3)C2)cc1OC (centres undefined), the “activity change, negative = cytotoxicity” value was inactive: -3.12%.
In the case of CC1(C)OC(=O)C2=C(C[C@@H](CCc3ccccc3)O[C@H]2CCc2cccc(Cl)c2)O1, the Potency was inconclusive: 13 µM [cytotoxic, partial curve].
For O=C(NCCN1CCC(n2c(=O)[nH]c3ccccc32)CC1)c1cccc(Cl)c1, the Potency was inconclusive: 18.4 µM [cytotoxic, single point].
With Cc1cc2c(cc1C)NC(CC(=O)Nc1cccc(C)c1C)C(=O)N2 (centres undefined) the “activity change, negative = cytotoxicity” value was inactive: -10.3%.
In the case of CC(=O)Nc1cccc(NC(=O)CSc2nc(C)c(C)c(C)c2C#N)c1, the Potency was inconclusive: 29.1 µM [cytotoxic, partial curve, poor fit].
For CC(Nc1ncnc2c1cnn2-c1cccc(Cl)c1)c1ccccc1 (centres undefined), the Potency was inconclusive: 29.1 µM [cytotoxic, single point].
For N#CCCN(CCC#N)S(=O)(=O)c1ccc(C(=O)Nc2nc(-c3ccccc3)c(C(=O)c3ccccc3)s2)cc1, the “activity change, negative = cytotoxicity” value was inactive: 3.35%.
For COc1ccccc1N1CCN(CC(=O)Nc2ccc(-n3cnnn3)cc2)CC1, the Potency was inconclusive: 18.4 µM [cytotoxic, partial curve].
With Cc1nnc(NC(=O)CSC2CCCCC2)s1 the “activity change, negative = cytotoxicity” value was inactive: 36.6%.
In the case of COc1ccc(CSCCNC(=S)Nc2ccccc2)cc1Cl, the “activity change, negative = cytotoxicity” value was inactive: -18.4%.
In the case of CSc1nnc2sc3cc(C)ccc3n12, the Potency was inconclusive: 20.6 µM [cytotoxic, single point].
In the case of CCOC(=O)c1c(-c2ccc(C)o2)csc1NC(=S)NC(=O)c1ccccc1Br, the Potency was active: 16.4 µM.
With COc1ccccc1CN(C)C(=O)c1cc(-c2cc(OC)c(OC)c(OC)c2)nc2ccccc12 the Potency was inconclusive: 13 µM [cytotoxic, partial curve, poor fit].
With CC(C)NC(=S)N=Nc1c(O)[nH]c2ccc([N+](=O)[O-])cc12 the Potency was inconclusive: 10.3 µM [cytotoxic, partial curve].
In the case of C#Cc1ccc2c(c1)COc1c3ccccc3nn1-2, the Potency was inconclusive: 25.9 µM [cytotoxic, single point].
For O=C(C1CN(C(=O)c2cc3ccccc3o2)c2ccccc2O1)N1CCCCC1 (centres undefined), the Potency was inconclusive: 4.61 µM [cytotoxic, partial curve].
For COC(=O)c1ccc(-n2nnnc2SCC(=O)Nc2ccccc2C(=O)OC)cc1, the “activity change, negative = cytotoxicity” value was inactive: 14.5%.
In the case of COc1cc(C=NNC(=S)Nc2ccc(S(=O)(=O)N3CCCCC3)cc2)cc(OC)c1OC, the “activity change, negative = cytotoxicity” value was inactive: -18.1%.
In the case of Cc1cc(C(=O)OCC(=O)N2CC(=O)Nc3ccccc32)c(C)n1-c1ccccc1, the Potency was active: 16.4 µM.
In the case of CC(C)N(Cc1ccccc1)C(=O)CC(=O)N(Cc1ccccc1)C(C)C, the Potency was inconclusive: 14.6 µM [cytotoxic, partial curve].
For c1ccc2[nH]c3cc4ncnc4cc3nc2c1, the Potency was inconclusive: 14.6 µM [cytotoxic, partial curve].
In the case of O=C(CSc1nc2cc(Cl)ccc2s1)N1CCCc2ccccc21, the Potency was inconclusive: 20.6 µM [cytotoxic, partial curve].
For O=C1C=C(c2ccc(O)cc2)C[C@@H](c2ccc(Cl)cc2)C1, the “activity change, negative = cytotoxicity” value was inactive: 5.91%.
In the case of O=[N+]([O-])c1ccc(N2CCN(S(=O)(=O)Cc3ccccc3)CC2)cc1N1CCOCC1, the Potency was inconclusive: 20.6 µM [cytotoxic, single point].
With O=S(=O)(c1ccccc1)n1nc(-c2ccc(Cl)cc2)nc1NCc1ccc(F)cc1 the Potency was inconclusive: 11.6 µM [cytotoxic, partial curve, poor fit].
With Cc1ccc(-c2noc(CN(C(=O)c3ccc(C(C)(C)C)cc3)C(C)C)n2)cc1 the “activity change, negative = cytotoxicity” value was inactive: 2.68%.
In the case of COc1ccc(OC)c(N(CC(N)=O)S(=O)(=O)c2ccc(OC)c(OC)c2)c1, the “activity change, negative = cytotoxicity” value was inactive: 11.2%.
In the case of CCOc1ccc2nc(NCCCNS(=O)(=O)c3ccc(C)cc3)c(C#N)cc2c1, the Potency was inconclusive: 2.06 µM [cytotoxic, partial curve, poor fit].
In the case of COc1ccc(-c2nc(CN3CCN(c4ccccc4OC)CC3)c(C)o2)cc1, the Potency was inconclusive: 11.6 µM [cytotoxic, partial curve, poor fit].
In the case of N=C1C(c2nc3ccccc3[nH]2)=C(O)CN1c1ccccc1, the Potency was inconclusive: 4.61 µM [cytotoxic, full curve].
In the case of c1ccc(-c2nc(NCc3ccco3)c3ccccc3n2)nc1, the Potency was inconclusive: 5.17 µM [cytotoxic, partial curve].
With Cc1nn(CC(=O)Nc2nnc(C(C)C)s2)c(=O)c2ccccc12 the “activity change, negative = cytotoxicity” value was inactive: 1.52%.
In the case of Cc1ccc(C2CC(=O)c3cnc(N4CCN(c5ccccc5)CC4)nc3C2)cc1 (centres undefined), the Potency was active: 5.17 µM.
In the case of COCCNC(=O)/C(C#N)=C/c1c(N2CCN(c3ccccc3)CC2)nc2ccccn2c1=O, the “activity change, negative = cytotoxicity” value was inactive: -0.207%.
With CCCCSCCCNC(=O)c1cn(CC)c2ccc(S(=O)(=O)N(C)C3CCCCC3)cc2c1=O the Potency was inconclusive: 29.1 µM [cytotoxic, single point].
In the case of CCO[C@@H]1OC(C(=O)NCc2ccccc2)=C[C@H](c2coc3ccccc3c2=O)[C@H]1CCCO, the “activity change, negative = cytotoxicity” value was inactive: 2.17%.
With CCc1ccc(NC(=O)C2(c3cccs3)CCOCC2)cc1 the “activity change, negative = cytotoxicity” value was inactive: 1.68%.
For CCOC(=O)c1c(CC(C)C)csc1NC(=O)COC(=O)c1ccc(O)cc1, the Potency was inconclusive: 16.4 µM [cytotoxic, partial curve].
For O=C(CNC(=S)N(Cc1ccccc1)Cc1ccccc1F)NCCc1ccc(Cl)cc1, the Potency was inconclusive: 14.6 µM [cytotoxic, partial curve].
With O=C(NC1CCS(=O)(=O)C1)/C(=C/c1ccco1)NC(=O)c1ccccc1 (centres undefined) the Potency was inconclusive: 23.1 µM [rising, single point].
In the case of Cc1ccc(C(=O)NCC(=O)OCc2nnc(-c3ccc([N+](=O)[O-])cc3)o2)cc1, the Potency was inconclusive: 29.1 µM [rising, single point].
For Cn1c(=O)c2c(ncn2CC(=O)Nc2ccc3c(c2)OCO3)n(C)c1=O, the “activity change, negative = cytotoxicity” value was inactive: 18.5%.
With CCn1c(-c2cc3c(C(F)(F)F)nn(C)c3s2)n[nH]c1=S the Potency was active: 10.3 µM.
